SMILES strings stand for the structures. Like-named read-outs stand apart in the source and are kept apart here.

For this assay, the system named is mammary cancer cells MCF-7. In words: Proliferation measurement of mammary cancer cells MCF-7 (resazurin, 72 hrs exposure). In kind it is cell-based. The note with it: Homo sapiens. How it is done:
Detailed Procedure of the Proliferation Measurement of Mammary Cancer Cells MCF-7
1st Part Day 1: Sowing the Cells
1. Preparation of the Medium:
• Preparation of the volume to be put into the plates:
In a 50 mL Falcon, prepare 30 mL of complete RPMI with 10% FCS and 1% Glutamine: 27 mL of RPMI: 3 mL of FCS and 300 μL of Glutamine.
2. Preparation of the Cell Suspension:
• Suck up the medium contained in the flask with the vacuum pump • Rinse with 3 mL of PBS and suck up with the vacuum pump • Add 1 mL of trypsin and let it act for 3 mins in the oven at 37° C. in order to detach the cells. • When the cells are detached, add 2 mL of complete medium prepared previously for inactivating the trypsin. • Mix well the suspension by suction-discharge and transfer into a well-defined Falcon 15. • Count the cells in a Malassez cell: carry out dilution to one 20th for counting them with Trypan blue.
• Sow the plates with 200 μL of cell suspension according to the determined scheme • Put 200 μL of water in the peripheral wells • Leave for incubation for 24 hours.
2nd Part: Day 2, the Extract is Exposed
4. Preparation of the Medium:
A total of 45 mL of medium to be prepared in a Falcon 50 sterilized i.e. 40.5 mL of RPMI+4.5 mL of FCS+450 μL of glutamine
5. Preparation of the Extracts:
• prepare a 10 mg/mL solution: • Dissolve 8.1 mg of crude extract (noted as SF) according to Example 1, of the SF 5 fraction according to Example 2 or of the KP-18^E fraction (Guieranone B) in 810 μL of DMSO • Prepare the mother solution of extract (Ex) at 100 μg/mL i.e. 50 μL of (10 mg/ml) in 4,950 μL of RPMI • Produce the range of extracts (for 1 extract and only 1 range). • Remove the medium in the plates and add 200 μL per well of an extract range (one column per concentration). • Incubate the plates in the oven at 37° C. for 72 hrs.
6. Prepare Resazurin (Developer) and Read the Plate to
2 columns of cells+one column of resazurin alone=3 columns
200 μL/well×3 columns×6 lines=3,600 μL (total volume to be prepared: 5 mL) • Prepare 4.9 mL of medium+100 μL resazurin
Remove the medium and add 200 μL of (medium+resazurin) per well. • Incubate for 2 hours and read with fluorskan. 3rd Part: Measurement of Proliferation at 24 Hours (for t0), 72 Hrs for Extract • For the extract at 72 hrs:
200 μL/well×18 columns×6 lines (total volume to be prepared: 25 mL) • Prepare 24.5 mL of RPMI+500 μL of resazurin • Remove the medium and add 200 μL of (medium+resazurin) per well. • After 2 hours, readout with fluorskan.
The procedure described in Example 5 was used by replacing Guieranone B with tamoxifene or 5-FU (5-Fluorouracil). By following this procedure, it was possible to measure the CI50s of these compounds and of comparing them with that of Guieranone B.
For orientation: Alamar Blue is a resazurin reagent that responds to reducing activity.

As for `CC/C(=C(\c1ccccc1)c1ccc(OCCN(C)C)cc1)c1ccccc1` [Tamoxifene, reference compound], the IC50 (MCF7, MCF-7 mammary cancer cell line, same conditions (Table 2), read-out: Average Cl50 in μM) is 11.9 ± 0.93 µM; the IC50 (MCF7, MCF-7 mammary cancer cell line, same conditions (Table 2), read-out: Average Cl50 in μg/mL) stood at 4.42 ± 0.34 µg/mL; the IC50 (MCF7, mammary cancer line MCF-7, same conditions (Table 15, identical with Table 2), read-out: Average CI50 in μM) amounted to 11.9 ± 0.93 µM; the IC50 (MCF7, mammary cancer line MCF-7, same conditions (Table 15, identical with Table 2), read-out: Average CI50 in μg/mL) stood at 4.42 ± 0.34 µg/mL.

The values are drawn from US20140348958A1, “Anticancer Active Ingredient From Guiera Senegalensis” (UNIVERSITE D'AUVERGNE CLERMONT I, priority 2011, published 2014).
